# Experimental data: PubChem BioAssay AID504444 (National Center for Advancing Translational Sciences (NCATS), 2011)
# About 7,500 (2.1%) of roughly 360,000 compounds were called active. This list was built around the results that the source calls inconclusive (neither active nor inactive); the mix of calls is not that of the screen. The call rests on the fitted dose curve; in most records, active means well fitted inhibition curve with a large enough effect; inconclusive means small, poorly fitted or top-dose-only effect, or effect the other way; inactive means flat fitted curve, though single readings scatter. Potencies of inconclusive entries are doubtful fits and often do not repeat.
# Test: Nrf2 qHTS screen for inhibitors; further: nearly all actives have a fitted effect of over 60% in size
# Conditions: A549 ARE-Fluc reporter, luciferase luminescence, 18-24 h; activity change, negative = inhibition: at 46 µM (top of the series)
# Summary of the method: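 A549 ARE_Fluc cells (5000/well, 5% FBS OPTI-MEM) pre-incubated 2 h, then treated with compounds 18-24 h at 37C/5% CO2 in concentration-response. CellTiter-Fluor viability read first; BugLite luciferase luminescence after 15 min at room temperature gives Nrf2 activity.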
# On the % scale 0 is the no-effect control and ±100 the full control effect; potency means the concentration at half of the fitted maximal effect.
SMILES,Potency,"activity change, negative = inhibition"
O=C(CCCSc1nc2sc3c(c2c(=O)[nH]1)CCC3)NCCCO,"inconclusive: 32.6 µM [falling, partial curve, poor fit]",
Cc1ccc(/C=c2\s/c(=C(/C#N)C(=O)N3CCCC3)n(Cc3ccco3)c2=O)s1,"inconclusive: 25.9 µM [falling, single point]",
CCC(=O)N(C1=C(NC(C)C)C(=O)c2ccccc2C1=O)C(C)C,,inactive: -1.57%
CCCCN(CC)C(=O)Cn1cc2c(n1)-c1c(oc(C(=O)N3CCCC3)c1C)CC2,"inconclusive: 25.9 µM [falling, single point]",
O=C(c1cc(N2C(=O)C3C4CCC(C4)C3C2=O)ccc1Cl)N1CCN(c2ccc(F)cc2)CC1 (stereo not drawn),"inconclusive: 29.1 µM [falling, single point]",
Cc1nnc(SCC(=O)NC2CCCCC2)n1N,,inactive: 1.9%
O=C(COC(=O)c1ccc(-c2cnc3ccccc3n2)cc1)c1ccccc1,"inconclusive: 8.2 µM [activator, partial curve]",
CC1CN(C(=O)COC(=O)c2ccc3ncsc3c2)CC(C)O1 (stereo not drawn),"inconclusive: 23.1 µM [activator, single point]",
CCCN1CCN(C(=S)Nc2ccccc2C(F)(F)F)CC1,active: 16.4 µM,
COc1ccc(N(C)S(=O)(=O)c2ccc(Cl)c(C(=O)NCC(C)(C)N3CCOCC3)c2)cc1,"inconclusive: 20.6 µM [falling, single point]",
Cc1n[nH]c(=O)c2c1nnn2Cc1ccc(F)cc1,"inconclusive: 0.058 µM [falling, partial curve, poor fit]",
CCCCNC(=O)c1ccc(CS(=O)(=O)Cc2ccccc2F)o1,"inconclusive: 29.1 µM [falling, single point]",
CCN(CC(=O)NC1CCS(=O)(=O)C1)S(=O)(=O)c1cc(C)ccc1C (stereo not drawn),"inconclusive: 3.66 µM [activator, partial curve, poor fit]",
CC(C)Oc1cccc(C(=O)C2CCCN(Cc3cnc(N4CCCC4)s3)C2)c1 (stereo not drawn),"inconclusive: 18.4 µM [falling, partial curve]",
CN(C)/C=N/C(=S)Nc1ccc(F)cc1,"inconclusive: 0.259 µM [activator, full curve, poor fit]",
O=C(Nc1cccc(-n2cnnn2)c1)c1ccncc1,"inconclusive: 20.6 µM [activator, partial curve, poor fit]",
O=C(COc1ccc(S(=O)(=O)Nc2cccc(C(F)(F)F)c2)cc1)N1CCOCC1,"inconclusive: 16.4 µM [falling, partial curve, poor fit]",
O=C(CSc1nc2ccccc2c(=O)n1-c1ccc(F)cc1F)c1c[nH]c2ccccc12,"inconclusive: 18.4 µM [falling, partial curve, poor fit]",

# 3 of these compounds, reformatted:
SMILES | Potency | activity change, negative = inhibition
CC1CN(C(=O)COC(=O)c2ccc3ncsc3c2)CC(C)O1 (stereo not drawn) | inconclusive: 23.1 µM [activator, single point] | 
CCCN1CCN(C(=S)Nc2ccccc2C(F)(F)F)CC1 | active: 16.4 µM | 
COc1ccc(N(C)S(=O)(=O)c2ccc(Cl)c(C(=O)NCC(C)(C)N3CCOCC3)c2)cc1 | inconclusive: 20.6 µM [falling, single point] | 
